According to PMC11042535:
No constants are given. Whether binding was seen depends on the method and setting. Binding seen in cells or lysates may run through a third protein. A yes stands for co-enrichment or nearness to the bait. Other partners may have been found.

By UniProt entry, the sequences of proteins in these tests, tags left out.
UniProt P52630: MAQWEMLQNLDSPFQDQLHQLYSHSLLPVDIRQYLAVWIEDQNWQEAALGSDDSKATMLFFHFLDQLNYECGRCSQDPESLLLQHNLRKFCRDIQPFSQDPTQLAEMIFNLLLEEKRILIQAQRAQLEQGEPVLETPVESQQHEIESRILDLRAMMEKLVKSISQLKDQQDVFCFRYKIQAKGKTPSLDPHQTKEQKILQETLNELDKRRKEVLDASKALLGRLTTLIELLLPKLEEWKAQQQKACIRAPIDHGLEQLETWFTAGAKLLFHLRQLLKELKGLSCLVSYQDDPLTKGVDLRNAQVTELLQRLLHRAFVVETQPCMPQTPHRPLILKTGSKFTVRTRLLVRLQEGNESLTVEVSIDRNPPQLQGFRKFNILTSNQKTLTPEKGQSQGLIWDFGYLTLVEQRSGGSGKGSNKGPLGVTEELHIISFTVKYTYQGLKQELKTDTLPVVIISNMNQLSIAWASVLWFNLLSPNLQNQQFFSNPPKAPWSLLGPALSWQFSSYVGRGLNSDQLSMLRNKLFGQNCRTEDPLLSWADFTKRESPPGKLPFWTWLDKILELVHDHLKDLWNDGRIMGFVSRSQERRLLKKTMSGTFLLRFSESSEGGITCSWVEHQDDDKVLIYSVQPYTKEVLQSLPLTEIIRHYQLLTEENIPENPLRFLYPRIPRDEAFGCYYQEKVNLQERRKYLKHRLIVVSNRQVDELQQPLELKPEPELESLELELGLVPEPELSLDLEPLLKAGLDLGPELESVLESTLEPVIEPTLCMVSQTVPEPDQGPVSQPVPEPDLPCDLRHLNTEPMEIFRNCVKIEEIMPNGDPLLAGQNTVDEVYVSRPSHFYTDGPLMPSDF

Molecular target: T1, nuclear factor kappa B subunit 2 (NFKB2) (human (endogenous in CRC tissues)) (UniProt Q00653)
T1 sequence: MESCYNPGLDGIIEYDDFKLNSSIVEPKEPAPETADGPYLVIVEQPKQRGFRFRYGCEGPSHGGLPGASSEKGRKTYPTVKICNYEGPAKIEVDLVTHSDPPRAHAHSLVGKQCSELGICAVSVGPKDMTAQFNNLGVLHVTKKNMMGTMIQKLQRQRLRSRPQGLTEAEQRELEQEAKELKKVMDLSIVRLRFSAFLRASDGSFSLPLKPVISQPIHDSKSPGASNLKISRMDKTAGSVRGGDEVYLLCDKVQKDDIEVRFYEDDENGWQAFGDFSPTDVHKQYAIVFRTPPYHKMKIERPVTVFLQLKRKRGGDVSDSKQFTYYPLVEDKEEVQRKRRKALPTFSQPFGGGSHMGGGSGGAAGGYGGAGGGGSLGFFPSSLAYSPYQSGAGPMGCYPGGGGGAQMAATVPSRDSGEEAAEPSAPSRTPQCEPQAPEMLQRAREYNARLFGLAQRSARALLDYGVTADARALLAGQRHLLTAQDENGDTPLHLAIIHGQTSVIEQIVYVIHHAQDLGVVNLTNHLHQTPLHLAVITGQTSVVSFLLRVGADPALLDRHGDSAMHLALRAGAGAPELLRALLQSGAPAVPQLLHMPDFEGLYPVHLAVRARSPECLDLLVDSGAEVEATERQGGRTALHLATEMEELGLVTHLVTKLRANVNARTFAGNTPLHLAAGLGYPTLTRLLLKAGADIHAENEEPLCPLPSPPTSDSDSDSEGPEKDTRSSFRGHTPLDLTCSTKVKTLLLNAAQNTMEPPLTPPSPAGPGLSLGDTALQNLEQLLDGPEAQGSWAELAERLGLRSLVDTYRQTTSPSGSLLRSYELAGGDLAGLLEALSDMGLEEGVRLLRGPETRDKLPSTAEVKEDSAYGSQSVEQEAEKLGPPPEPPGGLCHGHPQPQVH
Assay: affinity purification with mass spectrometry; immunoprecipitation of NFKB2 from CRC tissues followed by mass spectrometry

- binding: binds
Substance: signal transducer and activator of transcription 2 (STAT2) (from UniProt P52630 1-851)
